The other results are listed elsewhere or left out. The main result of the screen is listed elsewhere. These columns were measured beside it and carry no call. The list favours compounds with an active or inconclusive main result. Potencies come from curve fits of mixed quality, noted in brackets.
Assay: qHTS Assay to Find Inhibitors of Chronic Active B-Cell Receptor Signaling
Details: ABC-DLBCL IkBa-CBG/CBR reporter, luminescence ratio (green luciferase fused to IkBa over red control in TMD8 lymphoma cells), 4 h
Outline: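 Compounds up to 46 uM were incubated four hours with TMD8 cells whose green CBG68 luciferase is fused to IkappaBalpha; red CBR luminescence normalised the signal, and concentration-effect curves were fitted to fusion, red and ratio data.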

[1] = measured here: CBR red luminescence, cell number
[2] = measured here: IkBa-CBG green luminescence

SMILES | AC50 [1] | AC50 [2]
O=C(Nc1ccccc1)c1ccc(-c2ccccc2C(F)(F)F)o1 | 29.1 µM [falling, single point] | –
COc1cc(NC(=O)CSc2nc3nc(C)c(Cc4ccc(C)cc4)c(C)n3n2)cc(OC)c1 | 6.31 µM [falling, full curve, poor fit] | –
CC1(/[N+]([O-])=C/c2ccccc2F)CCCCC1=O (configuration not stated) | 20 µM [falling, partial curve] | –
CCCc1nc2oc3ccccc3c(=O)c2c(=O)n1-c1ccccc1 | 0.398 µM [falling, full curve] | –
Cc1cc(C)nc(NC(=O)/C=C/c2ccccc2Cl)n1 | 16.4 µM [falling, partial curve, poor fit] | –
CCOC(=O)N1CCC(Nc2cccc(SC)c2)CC1 | 14.1 µM [falling, partial curve, poor fit] | –
Cc1ccc(N2C(=O)C3ON(c4ccccc4)C(c4ccncc4)C3C2=O)cc1 (configuration not stated) | 13 µM [falling, partial curve, poor fit] | –
CN1CCC2(CC1)Nc1nc(SCc3ccc(Cl)cc3)nn1C1=C2CN(C)CC1 | 25.1 µM [falling, single point] | –
CC(=O)Oc1ccc2c(=O)oc(-c3ccc([N+](=O)[O-])cc3)nc2c1 | 0.501 µM [falling, full curve] | –
COc1cccc(-n2c(SCC(=O)NC3CCCCC3)nc3n[nH]c(C)c3c2=N)c1 | 7.08 µM [falling, partial curve, poor fit] | –
CN(C)S(=O)(=O)c1ccc(NC(=O)CSc2nc3ccccc3n2-c2ccccc2)cc1 | 23.1 µM [falling, partial curve, poor fit] | –
Cc1cc(=O)[nH]c(SCc2cc(=O)n3nc(C)sc3n2)n1 | 5.17 µM [falling, single point] | –
CNC(=O)N(O)C1N(C)C(=O)N(Cc2ccccc2)C1(C)C (configuration not stated) | 0.82 µM [falling, full curve, poor fit] | –
CC(=O)c1sc(NC(=O)COc2ccc(Cl)cc2C)nc1C | 8.91 µM [rising, partial curve, poor fit] | –
Clc1nssc1=Nc1ccc(Br)cc1 | 35.5 µM [falling, single point] | –
CCOc1cc(-c2noc(CCC(=O)NCC3CCCO3)n2)ccc1OC (configuration not stated) | 3.16 µM [falling, single point] | –
Cc1c(NC(=O)CSc2ccccn2)c(=O)n(-c2ccccc2)n1C | 29.1 µM [rising, single point] | –
O=C(Nc1ccc(Br)cc1)c1cccc(S(=O)(=O)Nc2cnc3ccccc3c2)c1 | 18.4 µM [falling, single point] | –
Cc1cc(=O)oc2cc(OCC3CC(c4ccc(N(C)C)cc4)=NO3)ccc12 (configuration not stated) | 3.98 µM [rising, full curve, poor fit] | –
FC(F)(F)COc1ccc(-c2nnc(SCc3ccccc3)o2)cn1 | 0.0891 µM [falling, full curve, poor fit] | –
COc1ccc(-c2c([C@H]3[C@@H]4C=CCC[C@@]4(C)C(=O)N3Cc3ccccc3)ccc3ccccc23)cc1OC | 22.4 µM [falling, single point] | –

SMILES | AC50 [1] | AC50 [2]
O=C(Nc1ccc(F)cc1F)c1cc2n(n1)C(C(F)(F)F)C1CCCCC1N2 (configuration not stated) | 11.6 µM [rising, partial curve] | –
CC(C)COC(=O)c1cccc2c1-c1ccccc1/C2=N\O | – | 29.1 µM [rising, partial curve, poor fit]
O=C(CCCc1c[nH]c2ccccc12)NCc1ccccc1F | 7.94 µM [falling, partial curve, poor fit] | –
Cc1ccc(-c2onc3ccc(Br)cc23)cc1 | 20 µM [rising, partial curve, poor fit] | –
O=C(Nc1ccccc1)C1COc2ccccc2O1 (configuration not stated) | 0.501 µM [rising, full curve, poor fit] | –
COc1cc(/C=N/Nc2nc(Nc3ccc(C)cc3)nc(-n3nc(C)cc3C)n2)cc(OC)c1OC | 0.517 µM [falling, full curve] | –
Cc1ccccc1NC(=O)CCN1CCN(Cc2ccccc2)CC1 | 13 µM [rising, partial curve] | –
O=C(COc1ccccc1Cl)NCCCNC(=O)c1ccco1 | 5.01 µM [falling, partial curve, poor fit] | –
CCOc1ccc(-c2noc(CCCC(=O)NC3CCCCC3)n2)cc1OC | 5.01 µM [falling, partial curve] | –
O=C(CN1CCN(CC(=O)Nc2ccccc2Cl)CC1)Nc1ccc2c(c1)OCCO2 | 22.4 µM [falling, single point] | –
COc1ccc(/C=N/NC(=O)c2ccccc2O)cc1Cn1cc(Cl)cn1 | 7.08 µM [falling, full curve] | –
O=C(NCc1cccs1)c1nc2c(nnn2Cc2ccccc2Cl)c(=O)[nH]1 | 4.11 µM [falling, full curve, poor fit] | 5.17 µM [rising, full curve, poor fit]
Cc1ccoc1C(=O)NCc1occc1C(=O)O | 11.2 µM [falling, partial curve] | –
Cc1cc(C)n2nc(C(=O)Nc3cccc(S(=O)(=O)N4CCOCC4)c3)nc2n1 | 0.92 µM [rising, full curve, poor fit] | –
CCN(CC)S(=O)(=O)c1ccc(NC(=S)NC(=O)C(C)C)cc1 | 16.4 µM [rising, partial curve, poor fit] | –
CC(C)CN(C(=O)COC(=O)Cc1ccc(Cl)cc1)c1c(N)n(Cc2ccccc2)c(=O)[nH]c1=O | 29.1 µM [rising, single point] | –
CCOC(=O)c1cnc(SCc2nc(N)nc(Nc3ccc(OC)cc3)n2)nc1N | 0.651 µM [rising, full curve, poor fit] | –
COc1ccccc1NC(=O)COC(=O)CNC(=O)c1ccc(OC)c(OC)c1 | 29.1 µM [rising, single point] | –
COc1cc(OC)cc(C(=O)NCC(=O)NCCN2C(=O)S/C(=C\c3ccccc3Cl)C2=O)c1 | 29.1 µM [falling, single point] | –
CCCc1nc(SCC(=O)Nc2cc(C)on2)c2ccccc2n1 | 10 µM [falling, partial curve] | –
O=C(CNC(=O)c1cccs1)N/N=C/c1ccco1 | 35.5 µM [falling, single point] | –

Entries of single compounds, quoted from the list. Values in the order: AC50 [1]	AC50 [2]
Cc1cc(=O)oc2cc(OCC3CC(c4ccc(N(C)C)cc4)=NO3)ccc12 (configuration not stated) as listed: 3.98 µM [rising, full curve, poor fit]	–
COc1ccc(-c2c([C@H]3[C@@H]4C=CCC[C@@]4(C)C(=O)N3Cc3ccccc3)ccc3ccccc23)cc1OC as listed: 22.4 µM [falling, single point]	–
Cc1c(NC(=O)CSc2ccccn2)c(=O)n(-c2ccccc2)n1C as listed: 29.1 µM [rising, single point]	–
COc1ccccc1NC(=O)COC(=O)CNC(=O)c1ccc(OC)c(OC)c1 as listed: 29.1 µM [rising, single point]	–

(further entries)

SMILES | AC50 [1] | AC50 [2]
CC1=NN(c2nc(-c3ccc(Cl)cc3)cs2)C(=O)C1 | 17.8 µM [falling, single point] | –
CC(=O)c1ccc(Sc2nnc(C)s2)c([N+](=O)[O-])c1 | 25.1 µM [falling, single point] | –
CCOC(=O)N1CCN(C(=O)c2ccccc2N(C)S(C)(=O)=O)CC1 | 23.1 µM [falling, single point] | –
CC(C)COC(=O)c1ccc2c(c1O)C(=O)c1ccccc1C2=O | 9.2 µM [rising, partial curve, poor fit] | –
CNC(=S)N/N=C(\C)c1cccc([N+](=O)[O-])c1 | 18.4 µM [rising, partial curve, poor fit] | 23.1 µM [falling, partial curve, poor fit]
CC(NS(=O)(=O)c1ccccc1)C(=O)NCc1ccco1 (configuration not stated) | 6.51 µM [rising, single point] | –
Cc1ccc(C(=O)Nc2ccc(O)c(C(=O)O)c2)o1 | 23.1 µM [falling, partial curve, poor fit] | –
COc1ccc2nc(C)cc(Sc3nc4ccccc4s3)c2c1 | 12.6 µM [falling, partial curve] | 8.91 µM [falling, partial curve, poor fit]
CCOc1ccc(S(=O)(=O)N(CC)CC(=O)NCc2cccnc2)cc1 | 2.24 µM [rising, partial curve, poor fit] | –
CNc1ccc([N+](=O)[O-])cc1-c1nc2ccccc2[nH]c1=O | 3.98 µM [falling, partial curve, poor fit] | –
Cc1cccc(C(=O)N[C@H](C(=O)Nc2nc3ccccc3[nH]2)C(C)C)c1 | 5.62 µM [rising, full curve, poor fit] | 7.08 µM [falling, partial curve]
COc1ccccc1NC(=O)c1c(O)c2ccccc2[nH]c1=O | 0.0891 µM [falling, full curve, poor fit] | –
CCOC(=O)c1ccc(NC(=O)c2cc(OC)c(OC)c(OC)c2Br)cc1 | 9.2 µM [rising, partial curve, poor fit] | –
CCOc1ccc(CCNC(=O)CS(=O)(=O)Cc2nc(-c3cccc(OC)c3)oc2C)cc1 | 0.0891 µM [falling, full curve, poor fit] | –
CCCn1nnc(NC(=O)c2cc3ccccc3o2)n1 | 13 µM [falling, partial curve] | –
O=C(CCl)NCc1c(Cl)cccc1-n1cccc1 | 3.98 µM [falling, full curve, poor fit] | –
CC(C)(C)c1ccc(OCc2ccc(C(=O)N3CCOCC3)o2)cc1 | 25.1 µM [falling, single point] | –
O=C(CSc1ccccc1)Nc1ccc2c(c1)OCO2 | 1.58 µM [rising, partial curve, poor fit] | –
COc1ccc(OC)c(C(=O)NC2CC(C)(C)Cc3c2cnn3-c2ccccc2)c1 (configuration not stated) | 6.31 µM [falling, partial curve, poor fit] | –
Cc1ccc(-n2cc(CN(C)Cc3ncc[nH]3)c(-c3cccc(C)c3)n2)cc1 | 35.5 µM [falling, single point] | 35.5 µM [rising, single point]
